Screen size: about 53,000 sequences; about 3,700 (7%) were called active.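 How the source made its calls: active means gene knockdowns whose robust z-score for IL-1 alpha signal is at least 2 or at most -2, so actives lie on both sides; inactive means the rest.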 Some of the results follow.

A short description of the assay: Components of the Cytosolic LPS Sensing Pathway: Gene Identification via Genome-wide siRNA Screen.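 Further: robust z of the log signal after scaling to non-targeting control siRNA wells of the plate.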 The settings on record: RAW264.7 macrophages, IL-1a HTRF, actives lie on both sides, screened at 100 nM (by protocol), cells primed 5 h with Pam3CSK4 first. In outline:
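Knockdown: 100 nM siRNA, 48h, RAW264.7. Stimulation: Pam3CSK4 5 h, then LipidA via TransIT-TKO 24 h. Output: supernatant IL-1a HTRF, negative-control-normalized, log robust z-score; viability by CellTiter-Glo.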
On to CCUUUUACCAAAACACACATT against Zfp148, for which the z-score was inactive: -1.02.

Consider GGCCGAAGUCCAAAAUCUCTT against Ranbp9, for which the z-score is inactive: 0.716.

Take “GCCGAAACCUCUAUAAGCUTT against 4833408A19Rik”: the z-score was inactive: 0.504.

Take GCAAGCAUAGAGCAAAUAUTT against Gosr2: the z-score was inactive: 0.586.

For the sequence GCACAUAGUAAGAACUUAUTT against Prorsd1, the z-score was inactive: -0.774.

As for GGCUGACAGGAUUAUCACATT against Hibadh, the z-score was inactive: -1.25.

Turning to GGACGAAUAGAAAUCAUAGTT against Cd84, the z-score is inactive: -0.468.

Regarding GGAAAUUCAUGUGACUAUGTT against Vamp7, the z-score is inactive: -0.359.

On to GGCUGUUCAUCAGCAGAUUTT against Nme6, for which the z-score was inactive: 0.351.

As to GCAAGUCAUAACGAGGACUTT against Akr1b10, the z-score was inactive: -0.0493.

On to GCACACGAAGCAUUGACACTT against Fam117b, for which the z-score was inactive: -0.137.

Turning to GCUGUUUGAACUCGCCCGATT against Cuedc1, the z-score was inactive: 0.0772.

Turning to CCAAAAAAUAGUCCGGUUGTT against Cldn34b3, the z-score is inactive: -0.12.

Turning to GGUCAAGGAGCCACAAUUGTT against Rab30, the z-score was inactive: -1.11.

As for GCCUCUGUCAUUGAAGCUGTT against Sun3, the z-score is inactive: 1.28.

Turning to CGGAAUAAUCUUGUCUCCGTT against Alox12e, the z-score was inactive: -0.0183.

On to GGCUCAUCAUUUACUUAAUTT against Slc22a3, for which the z-score was inactive: -0.954.

For GGGUAUAACAAGACUACAATT against Dctn3, the z-score is inactive: -0.121.

Take GGAUGAACAGCUGUAGAAATT against Ears2: the z-score was inactive: 0.292.

For the sequence CCCAAGCACCAGCCCUAUATT against Frmd8, the z-score was inactive: -1.58.

In the case of CCCAUGGAACGGGAAGCUUTT against Serpinb9d, the z-score is inactive: -0.554.

GGAGGAAUAUCAGUCCCUGTT against Ufc1: the z-score was inactive: -0.485.

CCUCCUAAUAUGUUAAUACTT against Gmfb: the z-score was inactive: -0.235.

On to GGCGGAGUUCUCAAGACUUTT against Nudt18, for which the z-score is active: 3.55.

For the sequence GGACAUUGACAAAAUCAUCTT against Sec14l2, the z-score is inactive: -1.57.

Regarding GGUGAAGAGGAAGAUCCUGTT against Ctdnep1, the z-score is inactive: 0.421.

Consider GCCAGAUCAUUGUAUCAAUTT against Tmx3, for which the z-score was inactive: 1.27.

As to GGAAGAACAAUUGUGGCAUTT against Abca9, the z-score is inactive: -1.13.

For GGAAGACAAUGAACUUGUUTT against Loxhd1, the z-score is inactive: 0.694.

With GGUACUCUCAUUAUCUUUCTT against Tlr8, the z-score is inactive: -0.217.

Take GGUCCAAAACUGUUCUUCUTT against Ackr1: the z-score was inactive: 0.114.

GGUUCCUUCGUGAAUGUCATT against Glp1r: the z-score is inactive: 0.0826.

GGGUGAUAGCAAGACACAGTT against Olfr720: the z-score is inactive: 1.06.

For the sequence GGCAAGAGAAUUGUAUACATT against Pck2, the z-score is inactive: -0.425.

Regarding GCCUGGAUACAAUUACCCUTT against Tc2n, the z-score was inactive: -0.893.

On to GCUACCUUGAAUUUUCCGATT against Fxr2, for which the z-score was inactive: 0.664.

As to GGAGCUAUGCAUCAUUAAUTT against Srp14, the z-score was inactive: 0.407.

As for CGCGUACGACUUCUACAAATT against Hmgcs2, the z-score is inactive: 0.775.

For GGCGACAUAUUUUUCAAACTT against Fmn1, the z-score was inactive: -0.506.

Regarding CCUAUGUAACACAAACAUUTT against Orc5, the z-score was inactive: 0.721.

Consider GCAUUCAUUGAUCAAUUCUTT against Zbtb6, for which the z-score was active: 2.

For the sequence GCUCAAUGCUACUAUAGACTT against Lif, the z-score is inactive: -0.384.

For the sequence GCGUGUCACGUUCCCAUCUTT against Ppp1r37, the z-score is inactive: 0.428.

With GCCGUAGUAGACAAUCAUGTT against Ankrd28, the z-score is inactive: -0.123.

In the case of GCUCGUGGUGUCCUUGUUUTT against Atg101, the z-score is inactive: -1.02.

GGCUCAGGACUUUGUCUACTT against Lhx4: the z-score was inactive: -1.19.

CCAUUCUAGCUGGUUCGAATT against Ifi27: the z-score is inactive: 1.08.

As for CGAAUGCACAUCGUUACUGTT against Fbln2, the z-score was inactive: 1.1.

In the case of GGAGACCUUUUUGAACCUGTT against Zfp472, the z-score was inactive: -1.47.

Turning to GGGUAACAACCAUGUCCGUTT against Pspn, the z-score was inactive: 1.26.

GGAGAUGACCAAGUGGAAUTT against Pitpnm1: the z-score is inactive: 0.722.

GGUGAAGCUUGAGAUACUATT against Gcnt1: the z-score was inactive: -0.164.

For the sequence CCGGAGGUUCCAACAAACUTT against Dlx1, the z-score is inactive: -0.591.

On to GGGUGUCGAUUAUAACAGATT against Hnf4a, for which the z-score was inactive: 0.238.

On to CCUAUCAAACUGACUUCAUTT against Castor2, for which the z-score was inactive: 0.309.

GUAGUGAAAGCUUUUGGGUTT against Vmn1r226: the z-score is inactive: -0.881.

As to GGAUUAGCUGCAUGAAAGATT against Samt4, the z-score was inactive: -1.25.

On to CCAAGACCCUAAUAUCUAUTT against Ccdc47, for which the z-score was inactive: -0.216.

Regarding GGACUACGGUGAUGAUGGATT against Dpt, the z-score was inactive: -1.36.

On to GGCGGAAAUCAAAGGAGGATT against Dnmt1, for which the z-score was inactive: 0.791.

On to GCCUUACAACAAGCAACACTT against Esrp1, for which the z-score is inactive: -0.385.

For the sequence GCAUCACGCUAUAACCAUUTT against Slc22a17, the z-score was inactive: -0.244.

With GGACCCAGAGAAGAUCAAATT against Etfrf1, the z-score is inactive: 0.514.

Turning to GGGAAGUUCAUAUUGAUCCTT against Gsdma, the z-score is inactive: 0.691.

With GGUGUGUGUAUGGUAGGACTT against Dpcd, the z-score was inactive: -0.614.

In the case of GCUCUGCCUUCAGAUGACGTT against Olfr173, the z-score is inactive: -0.26.

Turning to CGUUAACCACAGUGAGAGATT against Nectin4, the z-score is inactive: -0.376.

As to “CGAGAGUUCUGUGACCAUGTT against Olfr1165-ps”, the z-score was inactive: 1.54.

For the sequence GGAUCAAGAAUUAAUGUCUTT against Nes, the z-score is inactive: -0.349.

GGAAUAAAUACAGGUUCUCTT against Chuk: the z-score is inactive: 0.0987.

For the sequence GGGUACAAGAGUCUGUUCUTT against Fkrp, the z-score is inactive: 0.64.

Turning to GGAACGAGGAGUCAAUAGATT against Ecscr, the z-score is inactive: -1.11.

On to GGUCUUCUCUCACCUUUUATT against Pstpip2, for which the z-score was inactive: -1.47.

Take GGUCACGAUUCUGUCAGACTT against Ctnnal1: the z-score was active: 3.57.

Consider GCAACUUUGGCACUAUCCGTT against Rnf123, for which the z-score is inactive: 0.788.

For GGAACUGGAAUUUAUGAUATT against Btla, the z-score is inactive: -0.26.

Regarding GCACCAGUGUUACCACAGUTT against Foxc1, the z-score was inactive: -1.01.

GGGUGUAAUAGUUACAAGATT against Zfp189: the z-score is inactive: 0.0189.

Take GGACUUCACCAUCCACGAATT against Pgap2: the z-score was inactive: 0.622.

In the case of CGAGCACUCAAUGUGUUGGTT against Abcb6, the z-score was inactive: -1.03.

Take GGAGAGUGGGAACCACUACTT against Prkaca: the z-score is inactive: -1.15.

Regarding GUCUUUGGCUCGGUUUGCGTT against Dmrta2, the z-score was inactive: 1.04.

Regarding GGGUUAGACAUCUUUCUGCTT against Olfr57, the z-score is inactive: -0.27.

Consider GGAUGGUGACAUGAAAAUCTT against Ifng, for which the z-score is inactive: 1.14.

With CCCUUACUAGAAAAAAGACTT against Nap1l2, the z-score is inactive: -0.45.

As to GGGAGUCCUGAGUUUCAAATT against Lypd4, the z-score is inactive: 0.21.

GCCCUUUUCAUUCUCCAGATT against Zdhhc25: the z-score is active: 4.39.

Regarding GGGCUUCUAACAAUACUUGTT against Frat2, the z-score was inactive: 0.574.

For the sequence AAGGAAGACAGUCAUAGCUTT against Vmn1r172, the z-score is inactive: 0.168.

Consider GGAGGAAAUAUGUUAACUATT against Atp6ap2, for which the z-score was inactive: 1.22.

Consider GCAUUCUGUUCGAGCUCCATT against Tmem39b, for which the z-score is inactive: 0.984.

Consider CCGUUUUUAAAGCGGGCCATT against Tmtc1, for which the z-score is inactive: -0.266.

In the case of GGAGGAGACUAUUUUCGCCTT against Mypop, the z-score is inactive: -1.86.

On to GGUUAUCUAUGGUCGGAAGTT against Jmjd8, for which the z-score is inactive: 0.115.

GGAAGUCCAACUUCUUCCATT against Ebf4: the z-score was inactive: -0.153.

Regarding GCCUGACCACCAACUUAUATT against Mast1, the z-score is inactive: -0.527.

Regarding GUCAGAUGCUGUAAGAUAATT against Defb4, the z-score is inactive: -0.223.

On to CCUCAGUAUCUGUUUUCCGTT against Gnat2, for which the z-score was inactive: 0.0243.

GCCUUAACUGACAAAAUACTT against Il1bos: the z-score is inactive: -1.31.

As for GGUUUUACCCGGUAAGUCCTT against Bcan, the z-score is inactive: -0.225.

Take GGGCCUCCAUCCUACUAUGTT against Grina: the z-score was inactive: 1.65.

As for GGAUGCUACAGGAAGAGAATT against Ccdc51, the z-score was inactive: 1.94.

For the sequence GGUAGACAUUCCUAAGCCCTT against Ddx21, the z-score is inactive: 0.149.

Regarding GGUCCUGGACAAGAGCAGUTT against Bcl11b, the z-score is inactive: 0.435.

Regarding GCCUGGUGUUGUGCUAUUUTT against Atf3, the z-score was inactive: -0.854.

In the case of GGAUGUGUAGUGCAAUUACTT against Olfr993, the z-score is inactive: -0.906.

As to GGAUGAUGAGAGAAACAAATT against Jak1, the z-score was active: 3.78.

These data come from PubChem BioAssay AID1508600 (Functional Genomics Laboratory (NCATS/FGL), 2020).
